The test system of this data set is New Zealand white rabbits. As to the kind of experiment: Fundus imaging of tamponade bubble after injection into rabbit vitreous cavity (phase shift and removal). The data set is classed as in vivo. As to conditions: 8 microliters injected into rabbit vitreous cavity. As to the method: The biological safety of a compound of Structure 1 is tested within an animal model. In particular, 2,2,2-Trifluoroethyl 1,1,2,2-tetrafluoroethyl ether was tested within a New Zealand white rabbits, an animal model in line with previous retinal tamponade studies (Santos et al., Retina, 33 (1): p 120-127 (1991)).
FIG. 1A includes a set of control retinal fundus images (near-infrared images IR and corresponding color images MC) for which balanced salt solution BSS (effectively water) was injected into a rabbit vitreous cavity. […] In other words, 2,2,2-Trifluoroethyl 1,1,2,2-tetrafluoroethyl ether was empirically determined to successfully phase shift under biological conditions at around 1 week post placement, and then subsequently carried out of the body over the next 2 months. […]
FIG. 6A includes a set of control retinal fundus images (near-infrared images IR and corresponding color images MC) for which balanced salt solution BSS (effectively water) was injected into a rabbit vitreous cavity. […] In other words, 1,1,2,3,3,3-Hexafluoropropyl difluoromethyl ether was empirically determined to successfully phase shift under biological conditions at around 1-3 days post placement, and then subsequently fully carried out of the body by Day 8. […]

Regarding `FC(F)C(F)(F)OCC(F)(F)F` [2,2,2-Trifluoroethyl 1,1,2,2-tetrafluoroethyl ether], the “Time to phase shift (liquid to gas) under biological conditions post placement” value (fundus images to D56) is “around 1 week”. Turning to `FC(F)OC(F)(F)C(F)C(F)(F)F` (centres unmarked) [1,1,2,3,3,3-Hexafluoropropyl difluoromethyl ether], the “Time to phase shift (liquid to gas) under biological conditions post placement” value (fundus images to D30) was 1-3 days.

The values are drawn from patent US20260263357A1, “PHASE SHIFTING INTRAVITREAL TAMPONADE” (Avant Sciences, Inc., priority 2023, published 2026).
